Drawing on the supplement of paper PMC6411743, this text covers NP40-soluble protein abundance for 38 targets.

Chains of the proteins cited; added tags and fusions are not shown. Lines headed by an entry give the natural chain unless they say otherwise; changes in a name come on top.
UniProt Q9H6R0: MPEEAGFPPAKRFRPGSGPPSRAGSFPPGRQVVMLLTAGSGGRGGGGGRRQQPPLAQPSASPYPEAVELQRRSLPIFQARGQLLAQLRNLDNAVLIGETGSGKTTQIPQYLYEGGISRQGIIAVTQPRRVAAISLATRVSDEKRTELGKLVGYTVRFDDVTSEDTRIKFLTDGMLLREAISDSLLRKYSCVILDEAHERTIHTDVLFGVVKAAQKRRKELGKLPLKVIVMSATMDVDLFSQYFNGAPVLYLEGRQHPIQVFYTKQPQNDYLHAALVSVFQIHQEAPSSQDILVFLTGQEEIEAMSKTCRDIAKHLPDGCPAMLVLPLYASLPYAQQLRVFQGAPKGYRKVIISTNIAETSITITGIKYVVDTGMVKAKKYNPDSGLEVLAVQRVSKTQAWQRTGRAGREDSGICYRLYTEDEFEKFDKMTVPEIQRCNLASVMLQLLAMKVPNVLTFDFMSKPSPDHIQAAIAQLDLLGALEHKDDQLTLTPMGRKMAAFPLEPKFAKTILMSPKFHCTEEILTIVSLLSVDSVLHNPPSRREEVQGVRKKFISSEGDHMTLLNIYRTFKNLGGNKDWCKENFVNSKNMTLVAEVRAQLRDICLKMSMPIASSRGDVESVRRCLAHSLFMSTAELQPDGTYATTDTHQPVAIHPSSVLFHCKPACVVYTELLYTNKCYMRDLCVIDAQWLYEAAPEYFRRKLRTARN
UniProt Q9HAN9, whole entry: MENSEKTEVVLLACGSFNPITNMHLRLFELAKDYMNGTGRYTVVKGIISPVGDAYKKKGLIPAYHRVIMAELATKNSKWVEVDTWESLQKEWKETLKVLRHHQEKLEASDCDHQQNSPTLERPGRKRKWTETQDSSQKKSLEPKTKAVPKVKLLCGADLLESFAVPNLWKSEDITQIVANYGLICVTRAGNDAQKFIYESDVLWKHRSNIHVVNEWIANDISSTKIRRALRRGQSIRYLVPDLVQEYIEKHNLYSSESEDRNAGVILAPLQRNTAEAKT
UniProt Q9HBH5: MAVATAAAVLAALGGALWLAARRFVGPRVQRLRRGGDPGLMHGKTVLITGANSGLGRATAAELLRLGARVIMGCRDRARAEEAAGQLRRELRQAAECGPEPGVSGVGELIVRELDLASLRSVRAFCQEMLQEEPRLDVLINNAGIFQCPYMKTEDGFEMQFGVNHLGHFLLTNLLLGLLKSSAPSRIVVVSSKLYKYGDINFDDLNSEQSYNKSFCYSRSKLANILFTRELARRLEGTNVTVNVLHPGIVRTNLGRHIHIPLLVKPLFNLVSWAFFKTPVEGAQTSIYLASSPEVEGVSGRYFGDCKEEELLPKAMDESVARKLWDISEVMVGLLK
UniProt Q9H9H4: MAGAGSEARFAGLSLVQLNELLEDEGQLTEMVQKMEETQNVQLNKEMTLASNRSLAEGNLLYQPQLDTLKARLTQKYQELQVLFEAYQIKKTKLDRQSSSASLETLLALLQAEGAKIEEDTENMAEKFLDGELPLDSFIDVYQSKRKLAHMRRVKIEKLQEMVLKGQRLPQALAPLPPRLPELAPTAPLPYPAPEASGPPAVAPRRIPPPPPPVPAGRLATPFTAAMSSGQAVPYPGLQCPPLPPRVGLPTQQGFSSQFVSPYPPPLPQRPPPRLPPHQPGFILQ
UniProt Q9HAD4: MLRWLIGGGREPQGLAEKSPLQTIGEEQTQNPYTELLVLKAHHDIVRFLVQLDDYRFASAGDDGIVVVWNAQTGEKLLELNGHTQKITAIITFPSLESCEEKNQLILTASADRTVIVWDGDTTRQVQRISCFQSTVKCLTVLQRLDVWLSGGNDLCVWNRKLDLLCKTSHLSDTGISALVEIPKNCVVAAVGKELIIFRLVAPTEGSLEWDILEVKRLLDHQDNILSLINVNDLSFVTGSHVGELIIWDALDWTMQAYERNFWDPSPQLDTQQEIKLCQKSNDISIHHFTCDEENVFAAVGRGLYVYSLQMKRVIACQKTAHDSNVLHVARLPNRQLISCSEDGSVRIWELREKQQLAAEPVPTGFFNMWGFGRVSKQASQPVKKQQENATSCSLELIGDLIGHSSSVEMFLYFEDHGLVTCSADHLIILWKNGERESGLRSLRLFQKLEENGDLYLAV
UniProt Q9HCD5: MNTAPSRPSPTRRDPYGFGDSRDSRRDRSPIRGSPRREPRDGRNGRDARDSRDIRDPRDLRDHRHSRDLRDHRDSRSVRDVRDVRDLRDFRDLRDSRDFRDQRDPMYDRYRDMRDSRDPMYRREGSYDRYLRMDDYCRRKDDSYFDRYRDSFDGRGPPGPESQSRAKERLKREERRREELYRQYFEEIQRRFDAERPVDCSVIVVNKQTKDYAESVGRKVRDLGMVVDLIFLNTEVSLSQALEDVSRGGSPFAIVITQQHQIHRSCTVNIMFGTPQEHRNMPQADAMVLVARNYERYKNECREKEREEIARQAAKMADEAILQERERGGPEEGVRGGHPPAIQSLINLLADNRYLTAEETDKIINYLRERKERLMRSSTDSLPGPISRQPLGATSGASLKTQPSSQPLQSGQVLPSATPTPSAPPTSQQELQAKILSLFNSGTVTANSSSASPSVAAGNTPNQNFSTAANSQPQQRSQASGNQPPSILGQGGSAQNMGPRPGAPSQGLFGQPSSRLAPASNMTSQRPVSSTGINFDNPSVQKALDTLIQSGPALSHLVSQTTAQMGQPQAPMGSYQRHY
UniProt Q9HD45: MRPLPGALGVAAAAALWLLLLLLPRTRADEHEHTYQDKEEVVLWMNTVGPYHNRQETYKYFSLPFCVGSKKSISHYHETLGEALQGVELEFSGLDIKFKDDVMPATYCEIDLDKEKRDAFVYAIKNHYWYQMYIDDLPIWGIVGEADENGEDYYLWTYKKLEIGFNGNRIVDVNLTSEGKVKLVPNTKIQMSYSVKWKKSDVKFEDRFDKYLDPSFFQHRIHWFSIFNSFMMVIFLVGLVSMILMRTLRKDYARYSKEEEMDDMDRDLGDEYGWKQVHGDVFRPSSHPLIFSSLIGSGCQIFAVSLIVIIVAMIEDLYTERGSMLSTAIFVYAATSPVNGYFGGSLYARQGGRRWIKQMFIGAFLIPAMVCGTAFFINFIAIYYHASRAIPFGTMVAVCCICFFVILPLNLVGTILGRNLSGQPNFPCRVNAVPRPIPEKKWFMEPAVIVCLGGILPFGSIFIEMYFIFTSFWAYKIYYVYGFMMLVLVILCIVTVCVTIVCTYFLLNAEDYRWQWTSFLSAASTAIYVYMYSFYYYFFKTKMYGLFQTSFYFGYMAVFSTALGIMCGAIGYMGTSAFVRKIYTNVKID
UniProt Q9C073: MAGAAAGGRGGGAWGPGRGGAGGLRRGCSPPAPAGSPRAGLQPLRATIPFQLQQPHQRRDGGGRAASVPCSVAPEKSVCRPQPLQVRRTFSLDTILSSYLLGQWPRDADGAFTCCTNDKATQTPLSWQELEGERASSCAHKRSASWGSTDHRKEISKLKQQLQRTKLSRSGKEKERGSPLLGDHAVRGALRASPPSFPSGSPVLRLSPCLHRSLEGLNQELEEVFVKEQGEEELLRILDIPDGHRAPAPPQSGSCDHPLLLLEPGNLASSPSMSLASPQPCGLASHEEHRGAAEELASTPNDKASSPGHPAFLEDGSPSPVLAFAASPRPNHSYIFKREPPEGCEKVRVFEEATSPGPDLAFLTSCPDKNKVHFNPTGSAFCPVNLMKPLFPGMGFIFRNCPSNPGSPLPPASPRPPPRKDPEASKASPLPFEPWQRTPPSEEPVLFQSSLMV
UniProt Q9H6W3: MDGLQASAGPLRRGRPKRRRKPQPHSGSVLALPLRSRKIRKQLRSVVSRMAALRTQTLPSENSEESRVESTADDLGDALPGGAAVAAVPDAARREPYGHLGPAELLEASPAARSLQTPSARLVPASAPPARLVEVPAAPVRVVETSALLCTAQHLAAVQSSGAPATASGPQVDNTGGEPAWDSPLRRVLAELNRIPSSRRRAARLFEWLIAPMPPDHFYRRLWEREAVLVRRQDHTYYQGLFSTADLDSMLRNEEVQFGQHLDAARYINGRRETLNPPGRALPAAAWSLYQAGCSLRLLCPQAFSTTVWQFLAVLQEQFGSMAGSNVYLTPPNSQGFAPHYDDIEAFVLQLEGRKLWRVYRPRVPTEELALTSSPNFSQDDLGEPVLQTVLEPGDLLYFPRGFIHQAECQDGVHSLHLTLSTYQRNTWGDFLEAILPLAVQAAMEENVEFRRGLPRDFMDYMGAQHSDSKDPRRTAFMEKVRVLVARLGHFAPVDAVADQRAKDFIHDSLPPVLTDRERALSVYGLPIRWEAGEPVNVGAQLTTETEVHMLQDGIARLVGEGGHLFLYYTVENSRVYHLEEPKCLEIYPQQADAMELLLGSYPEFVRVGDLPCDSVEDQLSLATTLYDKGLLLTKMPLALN
UniProt Q9GZP9: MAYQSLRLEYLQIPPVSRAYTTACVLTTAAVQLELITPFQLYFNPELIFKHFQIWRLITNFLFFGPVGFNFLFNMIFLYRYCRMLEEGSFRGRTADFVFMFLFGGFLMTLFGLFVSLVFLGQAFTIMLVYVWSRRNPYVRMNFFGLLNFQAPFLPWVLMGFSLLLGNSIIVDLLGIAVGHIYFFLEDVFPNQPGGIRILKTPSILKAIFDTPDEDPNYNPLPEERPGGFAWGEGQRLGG
UniProt Q9H993: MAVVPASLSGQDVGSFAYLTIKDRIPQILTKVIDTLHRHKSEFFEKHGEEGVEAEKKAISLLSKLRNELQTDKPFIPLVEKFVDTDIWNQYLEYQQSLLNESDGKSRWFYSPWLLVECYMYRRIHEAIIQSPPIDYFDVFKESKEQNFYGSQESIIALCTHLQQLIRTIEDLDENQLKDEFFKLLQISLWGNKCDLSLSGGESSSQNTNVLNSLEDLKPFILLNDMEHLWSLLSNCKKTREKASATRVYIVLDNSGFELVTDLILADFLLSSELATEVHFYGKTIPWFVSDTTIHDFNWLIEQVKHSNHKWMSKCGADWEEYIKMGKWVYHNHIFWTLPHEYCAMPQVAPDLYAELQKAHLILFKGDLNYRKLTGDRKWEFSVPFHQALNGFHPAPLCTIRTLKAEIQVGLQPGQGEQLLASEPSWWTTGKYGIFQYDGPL
UniProt Q9H974: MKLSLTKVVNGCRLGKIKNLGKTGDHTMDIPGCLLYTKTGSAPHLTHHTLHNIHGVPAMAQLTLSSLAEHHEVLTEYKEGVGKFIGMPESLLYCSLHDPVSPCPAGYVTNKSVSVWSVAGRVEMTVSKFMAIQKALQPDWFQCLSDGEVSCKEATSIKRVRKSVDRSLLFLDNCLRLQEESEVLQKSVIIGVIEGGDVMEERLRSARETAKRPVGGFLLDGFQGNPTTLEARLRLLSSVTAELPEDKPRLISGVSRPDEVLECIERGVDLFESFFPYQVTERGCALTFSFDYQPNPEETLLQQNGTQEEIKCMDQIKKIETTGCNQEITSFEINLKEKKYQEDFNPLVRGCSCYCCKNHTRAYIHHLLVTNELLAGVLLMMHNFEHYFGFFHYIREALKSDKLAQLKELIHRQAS
UniProt Q9HCM7, whole entry: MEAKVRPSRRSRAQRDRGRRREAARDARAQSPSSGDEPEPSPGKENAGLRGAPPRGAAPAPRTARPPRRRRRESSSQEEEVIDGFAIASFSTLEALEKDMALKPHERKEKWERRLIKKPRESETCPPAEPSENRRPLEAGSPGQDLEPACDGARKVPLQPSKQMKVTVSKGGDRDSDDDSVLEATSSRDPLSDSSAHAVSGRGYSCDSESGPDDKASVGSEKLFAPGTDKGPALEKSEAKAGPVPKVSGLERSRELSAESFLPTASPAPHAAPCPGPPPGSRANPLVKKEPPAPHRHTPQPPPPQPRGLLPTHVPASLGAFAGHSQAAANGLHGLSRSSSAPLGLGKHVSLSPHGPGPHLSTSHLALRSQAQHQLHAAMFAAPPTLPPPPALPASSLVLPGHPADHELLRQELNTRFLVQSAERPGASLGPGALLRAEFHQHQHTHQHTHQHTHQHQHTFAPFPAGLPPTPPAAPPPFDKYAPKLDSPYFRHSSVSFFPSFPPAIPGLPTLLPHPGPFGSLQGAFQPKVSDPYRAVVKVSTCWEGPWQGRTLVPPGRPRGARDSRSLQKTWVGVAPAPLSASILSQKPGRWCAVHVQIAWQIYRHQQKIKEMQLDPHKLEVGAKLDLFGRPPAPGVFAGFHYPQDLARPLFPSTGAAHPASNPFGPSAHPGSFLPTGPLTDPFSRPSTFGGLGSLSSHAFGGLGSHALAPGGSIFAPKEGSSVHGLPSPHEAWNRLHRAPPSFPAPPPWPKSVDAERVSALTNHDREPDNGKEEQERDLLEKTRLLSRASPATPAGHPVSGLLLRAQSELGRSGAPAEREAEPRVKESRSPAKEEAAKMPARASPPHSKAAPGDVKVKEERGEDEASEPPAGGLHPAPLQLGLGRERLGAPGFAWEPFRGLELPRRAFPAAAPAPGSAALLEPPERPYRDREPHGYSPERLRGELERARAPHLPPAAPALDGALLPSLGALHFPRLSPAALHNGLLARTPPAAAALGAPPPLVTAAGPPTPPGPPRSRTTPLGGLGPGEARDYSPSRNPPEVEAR

± gives the standard deviation of the averaged measurements. The entries are a selection whose mix differs from that of the whole data set. Most values lie at the level of the controls, where differences are scatter.

Compound in one assay: Nc1ncnc2c1ncn2[C@@H]1O[C@H](COP(=O)(O)OP(=O)(O)OP(=O)(O)O)[C@@H](O)[C@H]1O [adenosine triphosphate]
In words: NP40-soluble protein abundance relative to vehicle (solubility fold change) (ratio); higher = more soluble protein in presence of ATP. Conditions: concentration: 0.1mM. The gist of the method:
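Jurkat crude lysate (Dounce-homogenised) was treated with eight concentrations from 0.1 to 10 mM for 10 min at room temperature, then 3 min at 37 °C. It was solubilised with 0.8% NP40 and benzonase (60 min, 4 °C) and ultracentrifuged, and the supernatant was TMT-labelled for LC-MS/MS. Intensities were vsn-normalised, and the value is the fold change against the NP40-processed vehicle per replicate, from three independent experiments.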
As to DHX33 (UniProt Q9H6R0), the NP40-soluble protein abundance is 1.02 ± 0.026.
As to FTO (UniProt Q9C0B1), the NP40-soluble protein abundance came out at 1.05 ± 0.076.
Regarding NMNAT1 (UniProt Q9HAN9), the NP40-soluble protein abundance came out at 1.1 ± 0.15.
For the target RDH14 (UniProt Q9HBH5), the NP40-soluble protein abundance came to 1.03 ± 0.031.
For VPS37B (UniProt Q9H9H4), the NP40-soluble protein abundance was 0.951 ± 0.11.
With WDR41 (UniProt Q9HAD4), the NP40-soluble protein abundance was 1.08 ± 0.058.
Still for that read-out and setting: then ATP13A1 (UniProt Q9HD20), with 1.05 ± 0.084; and NCOA5 (UniProt Q9HCD5), with 1.004 ± 0.0032; and TM9SF3 (UniProt Q9HD45), with 1.05 ± 0.085.
On to FAM117A (UniProt Q9C073), for which the NP40-soluble protein abundance amounted to 1.01 ± 0.03.

The assay is the same for the next values; noted with them: concentration: 0.5mM.
UniProt Q9H0S4 and related entries: the NP40-soluble protein abundance was found to be 1.11 ± 0.022.
Turning to UniProt Q9C037 and related entries, the NP40-soluble protein abundance is 1.05 ± 0.066.
As to XAB2 (UniProt Q9HCS7), the NP40-soluble protein abundance came out at 1.03 ± 0.019.
As to UniProt Q9H1P3 and related entries, the NP40-soluble protein abundance amounted to 1.01 ± 0.041.
Same read-out and setting: then RABEP2 (UniProt Q9H5N1), with 0.929 ± 0.031; and SAP30L (UniProt Q9HAJ7), with 1 ± 0.12.
Take UniProt Q9HCE5: the NP40-soluble protein abundance amounted to 1.04 ± 0.063.
With UniProt Q9H6W3, the NP40-soluble protein abundance was 1.14 ± 0.007.
UniProt Q9GZN8 and related entries: the NP40-soluble protein abundance worked out at 1.06 ± 0.049.
For the target UniProt Q9H813 and related entries, the NP40-soluble protein abundance was found to be 0.991 ± 0.046.
For the target PTGES2 (UniProt Q9H7Z7), the NP40-soluble protein abundance is 0.959 ± 0.013.
Take UniProt Q9C0D2 and related entries: the NP40-soluble protein abundance stood at 1.06 ± 0.047.
In the case of UniProt Q9GZP9 and related entries, the NP40-soluble protein abundance was found to be 0.939 ± 0.057.
The same measure, in the same setting: then UniProt Q9H867 and related entries, with 0.9597 ± 0.0092; and UniProt Q9H6R4 and related entries, with 0.919 ± 0.05; and UniProt Q9C0H2 and related entries, with 0.968 ± 0.045.
The same measure, in the same setting: then CHD8 (UniProt Q9HCK8), with 1.02 ± 0.039; and UniProt Q9GZS1-2, with 1.03 ± 0.036.
With UniProt Q9H993, the NP40-soluble protein abundance worked out at 1.06 ± 0.049.
For the target UniProt Q9H5X1, the NP40-soluble protein abundance turned out to be 0.956 ± 0.021.
Same read-out and setting: then UniProt Q9HDC9, with 1.02 ± 0.075; and UniProt Q9H974 and related entries, with 1.02 ± 0.06.
In the case of GRPEL1 (UniProt Q9HAV7), the NP40-soluble protein abundance is 0.888 ± 0.12.
With UniProt Q9GZR5, the NP40-soluble protein abundance came out at 1.01 ± 0.032.
As for UniProt Q9NNW7 and related entries, the NP40-soluble protein abundance was 0.964 ± 0.039.
Regarding ISCU (UniProt Q9H1K1), the NP40-soluble protein abundance was 0.944 ± 0.02.
As for UniProt Q9HCM7, the NP40-soluble protein abundance was found to be 1.66 ± 0.13.
The same measure, in the same setting: the value for UniProt Q9HC36 was 1.1 ± 0.099; that for DHX33 (UniProt Q9H6R0) was 1.01 ± 0.024.
FTO (UniProt Q9C0B1): the NP40-soluble protein abundance is 1.05 ± 0.07.
Take NMNAT1 (UniProt Q9HAN9): the NP40-soluble protein abundance is 1.06 ± 0.086.
With RDH14 (UniProt Q9HBH5), the NP40-soluble protein abundance came to 1.03 ± 0.013.
Regarding VPS37B (UniProt Q9H9H4), the NP40-soluble protein abundance stood at 0.894 ± 0.1.
For WDR41 (UniProt Q9HAD4), the NP40-soluble protein abundance turned out to be 1.04 ± 0.019.
Same read-out and setting: then ATP13A1 (UniProt Q9HD20), with 1.05 ± 0.076; and NCOA5 (UniProt Q9HCD5), with 1.039 ± 0.0075; and TM9SF3 (UniProt Q9HD45), with 1.04 ± 0.073.
Take FAM117A (UniProt Q9C073): the NP40-soluble protein abundance is 1 ± 0.037.

Staying with this assay, now noted: concentration: 1mM.
With UniProt Q9H0S4 and related entries, the NP40-soluble protein abundance came out at 1.18 ± 0.12.
Regarding RABEP2 (UniProt Q9H5N1), the NP40-soluble protein abundance is 0.967 ± 0.062.
In the case of SAP30L (UniProt Q9HAJ7), the NP40-soluble protein abundance was 1.0942 ± 0.00039.
Turning to UniProt Q9H6W3, the NP40-soluble protein abundance was determined as 1.2 ± 0.019.
Consider UniProt Q9GZP9 and related entries, for which the NP40-soluble protein abundance amounted to 0.935 ± 0.091.
For UniProt Q9H6R4 and related entries, the NP40-soluble protein abundance came out at 1.08 ± 0.049.
Consider UniProt Q9H993, for which the NP40-soluble protein abundance was found to be 1.08 ± 0.068.
For the target UniProt Q9HDC9, the NP40-soluble protein abundance turned out to be 1.03 ± 0.13.
Same read-out and setting: the value for UniProt Q9H974 and related entries was 1.03 ± 0.044; that for UniProt Q9NNW7 and related entries was 1.01 ± 0.04.
For UniProt Q9HCM7, the NP40-soluble protein abundance was 1.71 ± 0.25.
Still for that read-out and setting: then UniProt Q9HC36, with 1.11 ± 0.06.
On to DHX33 (UniProt Q9H6R0), for which the NP40-soluble protein abundance came out at 1.04 ± 0.059.
For NMNAT1 (UniProt Q9HAN9), the NP40-soluble protein abundance is 1.33 ± 0.36.
For the target RDH14 (UniProt Q9HBH5), the NP40-soluble protein abundance is 0.997 ± 0.049.
Regarding VPS37B (UniProt Q9H9H4), the NP40-soluble protein abundance was 0.992 ± 0.11.
Same read-out and setting: the value for WDR41 (UniProt Q9HAD4) was 1.03 ± 0.026; that for ATP13A1 (UniProt Q9HD20) was 1.01 ± 0.1; that for NCOA5 (UniProt Q9HCD5) was 1.09 ± 0.031.
On the same count and under the same terms, the value for TM9SF3 (UniProt Q9HD45) was 1.04 ± 0.12; that for FAM117A (UniProt Q9C073) was 1.04 ± 0.03.

Staying with this assay, now noted: concentration: 2mM.
For the target UniProt Q9H0S4 and related entries, the NP40-soluble protein abundance amounted to 1.23 ± 0.072.
Same read-out and setting: then RABEP2 (UniProt Q9H5N1), with 0.941 ± 0.036; and SAP30L (UniProt Q9HAJ7), with 1.12 ± 0.069; and UniProt Q9H6W3, with 1.25 ± 0.029.
Take UniProt Q9GZP9 and related entries: the NP40-soluble protein abundance was 0.903 ± 0.083.
In the case of UniProt Q9H6R4 and related entries, the NP40-soluble protein abundance came to 1.03 ± 0.018.
Same read-out and setting: the value for UniProt Q9H993 was 1.05 ± 0.06; that for UniProt Q9HDC9 was 1 ± 0.11; that for UniProt Q9H974 and related entries was 1 ± 0.035.
Regarding UniProt Q9NNW7 and related entries, the NP40-soluble protein abundance was 0.942 ± 0.011.
With UniProt Q9HCM7, the NP40-soluble protein abundance was 1.84 ± 0.31.
Regarding UniProt Q9HC36, the NP40-soluble protein abundance is 1.29 ± 0.068.
Still for that read-out and setting: the value for DHX33 (UniProt Q9H6R0) was 1.1 ± 0.012; that for NMNAT1 (UniProt Q9HAN9) was 3.44 ± 2.5.
Take RDH14 (UniProt Q9HBH5): the NP40-soluble protein abundance is 1.01 ± 0.0098.
As for VPS37B (UniProt Q9H9H4), the NP40-soluble protein abundance came to 0.958 ± 0.12.
Regarding WDR41 (UniProt Q9HAD4), the NP40-soluble protein abundance was found to be 0.994 ± 0.08.
As to ATP13A1 (UniProt Q9HD20), the NP40-soluble protein abundance amounted to 1 ± 0.06.
The same measure, in the same setting: then NCOA5 (UniProt Q9HCD5), with 1.22 ± 0.056; and TM9SF3 (UniProt Q9HD45), with 1.03 ± 0.1; and FAM117A (UniProt Q9C073), with 0.992 ± 0.02.
